# Experimental data from PubChem BioAssay AID2252 (Southern Research Specialized Biocontainment Screening …, 2010).
# “And” between values parts separate entries of the source, which are not always exact repeats. Identical values can stand only once. Hit rate of the full screen: of about 2,300 compounds, about 1,500 (65%) were called active. No rule for the calls is given here. The set was probably picked from earlier hits. Only a part is listed here, and it is no random draw.
# Assay: PubChem AID 2252;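 also: 100% = mean of untreated cell control wells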
# Settings: THP-1 viability, CellTiter-Glo luminescence, 72 h; at 50 µM (top of the series)
row,SMILES,viability
1,CN(C)[C@@H]1C(=O)C(C(N)=O)=C(O)[C@@]2(O)C(=O)C3=C(O)c4c(O)cccc4[C@@](C)(O)C3[C@H](O)C12 (stereo partly drawn),inactive: 83.1% and inactive: 99.3%
2,CO[C@H]1/C=C/O[C@@]2(C)Oc3c(C)c(O)c4c(O)c(c(C=NN5CCN(C)CC5)c(O)c4c3C2=O)NC(=O)/C(C)=C\C=C\[C@H](C)[C@H](O)[C@@H](C)[C@@H](O)[C@@H](C)[C@H](OC(C)=O)[C@@H]1C,inactive: 81.3%
3,CN1CCN(c2c(F)cc3c(=O)c(C(=O)O)cn4c3c2SCC4)CC1,inactive: 81%
